Measured values as given in patent US6416752B1, “Termite bait composition and method” (Whitmire Micro-Gen Research Laboratories, Inc., priority 2001, dated 2002).

Test system: Reticulitermes virginicus
Experiment: standard choice box test of termite bait compositions with killing agents
Assay type: in vivo
Details: bait composition in microcrystalline cellulose powder
Procedure: The termite bait active ingredients or killing agents diflubenzuron, emamectin benzoate and thiamethoxam were tested for their efficacy. The termite species tested was Reticulitermes virginicus. The methodology employed was the standard “choice box” test used in Example 1 in which termites were released into a central chamber with untreated wood. The central chamber was connected, using Tygon tubing (2 mm I D), with peripheral feeding chambers containing a termite bait composition of the invention (microcrystalline cellulose powder having an average particle size of 20 micrometers and a termite killing agent) or untreated pine wood. Each replicate was given the choice of one gram of the treated cellulose powder or three blocks (1 cm) of untreated pine wood. At the end of 25 or 37 days, the number of live termites was counted. At the same time, the amount of pine wood or termite bait composition consumed was measured. The treatments were replicated two times.

Row | Molecule | way of killing termites
1 | O=C(NC(=O)c1c(F)cccc1F)Nc1ccc(Cl)cc1 [Dimilin, diflubenzuron] | killed termites by ingestion
2 | CN1COCN(Cc2cnc(Cl)s2)/C1=N\[N+](=O)[O-] [Thiamethoxam, thiamethoxam] | killed termites by contact
3 | emamectin benzoate | killed termites by contact
